Results as given in article PMC12548414.
Screen size: about 1,600 compounds; about 20 (1%) showed an effect of 50% or more. Some of the results follow.

tested on: T1, E. coli pLC1021 (luc-trpAt trans-translation reporter); design: species or system Escherichia coli pLC1021; luc-trpAt non-stop luciferase reporter; luminescence rises when trans-translation is inhibited; normalized to KKL-35 and DMSO; settings: 2 h, 20 µM
T1 construct: pLC1021 luc-trpAt reporter strain
Protocol: The luciferase screen was performed as previously described ([16]). […] 48 µL of cells was transferred to white 96-well plates, and 2 µL DMSO or 20 µM compound, or 20 µM KKL-35 was added. Plates were sealed with adhesive film, vortexed gently to mix, and incubated at room temperature for 2 h. 50 µL Bright-Glo reagent (Promega, Madison, WI) was added to each well, and the plates were sealed with adhesive film, vortexed vigorously, and incubated for an additional 10 min at room temperature. Luminescence was measured at 560 nm using a SpectraMax i3 microplate reader and readings for each plate were normalized to the average of three KKL-35-treated wells (positive control) and three DMSO-treated wells (negative control) within the plate to correct for plate-to-plate and day-to-day variations. Results from at least two biological repeats were averaged, and GraphPad Prism was used to plot the data. We screened a library of 1,601 anti-tubercular small molecules for their ability to inhibit trans-translation using a luciferase reporter in Escherichia coli. In this luc-trpAt reporter, the firefly luciferase gene has a trpA transcriptional terminator before the stop codon, such that luciferase is translated from a non-stop mRNA ([16]). When trans-translation is active, the luciferase will be tagged and degraded, but when trans-translation is inhibited, active luciferase will accumulate, resulting in a luminescent signal when luciferin is added. Luciferase activity was measured after growth in the presence of compounds from the library at 20 µM, using the known trans-translation inhibitor KKL-35 as a positive control (Fig. 1A) ([16], [17]). Compounds with activity one standard deviation above the median were scored as positive (Fig. S1 and Table S1).

SMILES | % activation [%]
Cc1ccc(S(=O)(=O)NC(=O)Oc2cccc3cccnc23)cc1 [KKL-0779] | 13
CCCCN1C(=O)NC(=O)/C(=C(O)\C=C\c2ccc3c(c2)OCO3)C1=O [KKL-1019] | 13
Cn1cc(NC(=O)c2cc(NC(=O)CNC(=N)N)cn2C)cc1C(=O)NCCC(=N)N [KKL-1676] | 0
COc1cccc(OCCNC(=O)c2cc([N+](=O)[O-])cc([N+](=O)[O-])c2)c1 [KKL-1137] | 10
CN1C(=O)C(=C(Nc2ccccc2)SCc2ccc(Cl)cc2)C(=O)N(C)C1=O [KKL-0988] | 10
CN(C)c1ccc(/C=C/C=C2/C(=O)NC(=O)N(c3ccccc3)C2=O)cc1 [KKL-0969] | 0
Cc1cc(C)c(N2C(=O)NC(=O)/C(=C\c3ccc[nH]3)C2=O)c(C)c1 [KKL-0769] | 0
CN(C)CCC(=O)c1ccc(Br)cc1 [KKL-0775] | 0
CN1C(=O)C(=C(Nc2ccccc2)SCc2ccccc2Cl)C(=O)N(C)C1=O [KKL-0897] | 0
O=C1NC(=O)N(Cc2ccccc2Cl)C(=O)/C1=C/c1ccc[nH]1 [KKL-1089] | 5
Cc1ccccc1-n1ncc2c([N+](=O)[O-])cc([N+](=O)[O-])cc21 [KKL-1128] | 0
O=[N+]([O-])c1ccc(-n2nnnc2-c2ccccc2)c([N+](=O)[O-])c1 [KKL-1067] | 0
CSCC[C@H](NC(=O)c1cc([N+](=O)[O-])cc([N+](=O)[O-])c1)c1nc2ccccc2[nH]1 [KKL-0838] | 0
O=C1N(Cc2ccccc2Cl)c2ccc(Br)cc2C1(O)c1c[nH]c2ccccc12 (stereo not shown) [KKL-1587] | 0
Nc1c2c(nc3sc4c(c13)CCCC4)CCCC2 [KKL-1409] | 0
COc1ccc(C2(CNC(=O)c3cc([N+](=O)[O-])cc([N+](=O)[O-])c3)CCCC2)cc1OC [KKL-1661] | 0
O=C1NC(=O)N(CCc2ccccc2)C(=O)/C1=C(O)/C=C/c1ccc2c(c1)OCO2 [KKL-1029] | 0
CCOC(=O)COc1ccc2c(c1)c(C(=O)OCC)c(C)n2CC [KKL-1456] | 0
O=C(OC(c1ccccc1)c1nccc2ccccc12)c1cc([N+](=O)[O-])cc([N+](=O)[O-])c1 (stereo not shown) [KKL-0386] | 1
O=C(NCCN1CCOCC1)c1ccc([N+](=O)[O-])cc1[N+](=O)[O-] [KKL-1651] | 0
OC(COCC(F)(F)C(F)(F)C(F)(F)C(F)F)Cn1c2ccc(Cl)cc2c2cc(Cl)ccc21 (stereo not shown) [KKL-1015] | 0
Cc1ccc(Oc2cc(NC(=O)CCCn3nc(C)c([N+](=O)[O-])c3C)cc([N+](=O)[O-])c2)cc1 [KKL-0453] | 0
O=C(NCc1ccco1)c1cc([N+](=O)[O-])cc([N+](=O)[O-])c1 [KKL-1626] | 0
O=C1c2ccccc2C(=O)N1CCCCN(C(=O)c1cc([N+](=O)[O-])cc([N+](=O)[O-])c1)c1ccc(Cl)cc1 [KKL-0362] | 0
CC[C@@H]1C[C@H]2CC[C@H](O2)[C@H](C)C(=O)O[C@@H](C)C[C@@H]2CC[C@@H](O2)[C@@H](C)C(=O)O[C@H](C)C[C@H]2CC[C@H](O2)[C@H](C)C(=O)O[C@@H](C)C[C@@H]2CC[C@@H](O2)[C@@H](C)C(=O)O1 [KKL-0397] | 0

A draw from above in order of SMILES length, smallest number first.
SMILES | % activation [%]
Cc1ccc(S(=O)(=O)NC(=O)Oc2cccc3cccnc23)cc1 [KKL-0779] | 13
O=C1N(Cc2ccccc2Cl)c2ccc(Br)cc2C1(O)c1c[nH]c2ccccc12 (stereo not shown) [KKL-1587] | 0
O=C(OC(c1ccccc1)c1nccc2ccccc12)c1cc([N+](=O)[O-])cc([N+](=O)[O-])c1 (stereo not shown) [KKL-0386] | 1
